The supplement of paper PMC9454738
This is one part of the list. This data set is noisy: repeats of one test often differ as much as different tests do.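 Triple-negative MDA-MB-231 breast cancer cells and their brain-metastatic MDA-MB-231BRM derivative each stably expressed empty vector, full-length GLI1 or truncated tGLI1. CellTiter-Blue measured viability at 48 h relative to 1% DMSO vehicle. Compounds reducing viability 20% more in tGLI1 cells than in vector and GLI1 cells counted as tGLI1-selective.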

Each compound was assayed on MDA-MB-231 Vector (assay: cell viability relative to vehicle (DMSO) control (fraction); higher = more viable cells (less growth inhibition)). Details: 0.05 µM; treatment time 48 h.

**Q.** For `C[C@H]1[C@H](C)CC[C@]2(C(=O)O)CC[C@]3(C)C(=CC[C@@H]4[C@@]5(C)C[C@@H](O)[C@H](O)[C@@](C)(CO)[C@@H]5CC[C@]43C)[C@H]12` [Asiatic Acid], which cell viability is on record?
**A.** The cell viability was 1.09.

**Q.** Which cell viability does the source give for `O=C1NC(=O)C(c2ccccc2[N+](=O)[O-])=C1Nc1ccc(O)c(Cl)c1` here?
**A.** The cell viability was 1.13.

**Q.** How did the cell viability turn out when `Cc1c(Cn2c(C)nc3c(C(=O)O)cc(N4CCOCC4)cc32)cccc1C(F)(F)F` was run?
**A.** The cell viability was 0.683.

**Q.** Which cell viability does the source give for `Cc1ccc(NC(=O)c2ccc(CN3CCN(C)CC3)cc2)cc1Nc1nccc(-c2cccnc2)n1` [Imatinib (STI571)] here?
**A.** Its cell viability is 1.33.

**Q.** Which cell viability does the source give for `CCC(=O)NCC[C@@H]1CCc2ccc3c(c21)CCO3` [Ramelteon (TAK-375)] here?
**A.** Its cell viability is 1.09.

**Q.** How did the cell viability turn out when `NC(=O)Nc1cc(-c2cccc(F)c2)sc1C(=O)N[C@H]1CCCNC1` was run?
**A.** Its cell viability is 0.592.

**Q.** How did the cell viability turn out when `COc1cc2ncnc(Oc3ccc(CC(=O)Nc4cnn(C(C)C)c4)cc3)c2cc1OC` was run?
**A.** The cell viability was 1.27.

**Q.** How did the cell viability turn out when `CC(C)(C)NS(=O)(=O)c1cncc(-c2cc(F)c3nc(N)nn3c2)c1` was run?
**A.** Its cell viability is 1.13.

**Q.** `O=C(Nc1cc(C(F)(F)F)cc(C(F)(F)F)c1)c1cc(Cl)ccc1O` was tested. Which cell viability did it give?
**A.** Its cell viability is 0.755.

**Q.** `CN1CCC(COc2cnc(-c3cccc(Cn4nc(-c5cccc(C#N)c5)ccc4=O)c3)nc2)CC1` was tested. Which cell viability did it give?
**A.** Its cell viability is 1.47.

**Q.** `CC(C)CC(=O)Nc1n[nH]c2c1CN(C(=O)C1CCN(C)CC1)C2(C)C` was tested. Which cell viability did it give?
**A.** The cell viability was 0.86.

**Q.** Which cell viability does the source give for `COc1cc2ncc(-c3ccccc3)nc2cc1OC` [Tyrphostin AG 1296] here?
**A.** The cell viability was 0.73.

**Q.** `C1=N/C2=N/c3ccc(OCCN4CCCC4)c(c3)COC/C=C/COCc3cccc(c3)C(=C1)N2` [Pacritinib (SB1518)] was tested. Which cell viability did it give?
**A.** The cell viability was 0.646.
